Test results: publication doi:10.1101/388470 (bioRxiv, 2018)
Results are given in words; binding and its absence hold for the method and conditions named. Binding seen in cells or lysates may run through a third protein. Some entries that bind do so weakly or less than the wild type. Where a sequence is shown, tags or fusion partners need not be part of it. One block for each binder: values may come before it.

What was measured:
[1] = target: T1, Cdc45-5FLAG (S. cerevisiae) (UniProt Q08032); assay: co-sedimentation
T1 sequence: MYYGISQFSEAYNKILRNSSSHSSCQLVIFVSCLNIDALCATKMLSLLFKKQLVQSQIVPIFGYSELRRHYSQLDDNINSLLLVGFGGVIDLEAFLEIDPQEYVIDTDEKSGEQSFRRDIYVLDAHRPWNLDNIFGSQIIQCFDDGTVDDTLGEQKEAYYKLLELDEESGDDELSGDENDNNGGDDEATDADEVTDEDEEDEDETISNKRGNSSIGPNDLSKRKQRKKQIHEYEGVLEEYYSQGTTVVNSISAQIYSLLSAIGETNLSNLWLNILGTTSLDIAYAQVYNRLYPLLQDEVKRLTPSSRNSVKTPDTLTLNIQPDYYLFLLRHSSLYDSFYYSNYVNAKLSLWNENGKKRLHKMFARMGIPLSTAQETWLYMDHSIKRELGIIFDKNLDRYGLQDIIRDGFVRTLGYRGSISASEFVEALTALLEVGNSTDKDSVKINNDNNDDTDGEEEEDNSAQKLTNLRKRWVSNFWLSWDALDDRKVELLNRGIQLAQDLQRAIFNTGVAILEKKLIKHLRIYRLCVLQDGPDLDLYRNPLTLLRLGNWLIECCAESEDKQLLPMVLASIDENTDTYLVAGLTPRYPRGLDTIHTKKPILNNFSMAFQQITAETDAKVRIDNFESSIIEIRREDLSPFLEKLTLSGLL

[2] = target: Psf2-5FLAG (S. cerevisiae) (UniProt P40359); assay: co-IP
[3] = target: T2, Cdc45-5FLAG (S. cerevisiae), Q08032; assay: co-sedimentation; settings: remark: other sources report otherwise
T2 chain: T1 sequence

[4] = target: T2, Cdc45-5FLAG (S. cerevisiae), Q08032; assay: co-IP; settings: remark: other sources report otherwise

binding [1]: binds
B1: GINS heterotetramer (Sld5, Psf1, Psf2 and Psf3) (complex, UniProt Q03406;Q12488;P40359;Q12146)
chain 1: MDINIDDILAELDKETTAVDSTKITQGSSSTTHRDANTIVGSSLDLNDKTQIYVSPQQDFSDLMKSWKNERCSPELLPYPHQLMKRLLNRISMQSQLIENISMGFLDMQNASNANPPMPNESKLPLLCMETELERLKFVIRSYIRCRLSKIDKFSLYLRQLNEDENSLISLTDLLSKDEIKYHDTHSLIWLKLVNDSILKYMPEELQAINDTEGSVNMIDEPDWNKFVFIHVNGPPDGKWNEDPLLQENEFGKPCYTVTIPDLKEEVELTIGSIYVMRYEVIRDLLRDDKVALI
chain 2: MYGDLGNKLVLEAKRTKQLYARSNQDVNLPMYHEDIIRNILKEVSNLRKNTEYLKEQQQLGMLDDKVAKCQYFVTLLCMERNKRCLLAYQRLRTDILDSMAWNNNGLDLMSSITFSQQDTNNLSHQEQEYLKEYCDLITDLKSGDLVDIDLSGSLVPPSDVFIDVRVLKDAGEIQTEYGVFNLIKDSQFFVRQSDVERLIQQGYLQKI
chain 3: MSLPAHLQQTFSPEEIQFIVENEPIKIFPRITTRQKIRGDDRGTGNHTRWQLITTDDKALNNMVAMRSTEVVLWIALLLKQQSKCSIVAPQWLTTKELDRKIQYEKTHPDRFSELPWNWLVLARILFNKAKDDFHDPIHELRGKIQDLREIRQIKVLKGLKYLNESHLQLDNLSLLEINELRPFITEIMDKLREIHTASLTAGTENDEEEFNI
chain 4: MGYYDIDDVLADGTEFPCKFQYDIPGLGYLENNPGRPITKNTKLSLPLWLARILAIVGGDEALVDEEPVPFVELLPPDMFSTKVMNAIKTDPVALDLHSINSHFFSLAIKWIMLFSEKELANVVSELLLQRAQELNHHASSLSIDLNADSTGKNSANTNIATSTFLLKLEEMEKEIYKKSHESYKDTKRWMFKK

binding [2]: binds
B2: Psf2-5FLAG (natural protein)
chain: B1 chain 3

binding [3]: binds
binding [4]: binds
B3: Cdc45-5FLAG, Q08032 1-650 (natural protein)
chain: T1 sequence

binding [1]: binds
B4: Dpb2 (a subunit of DNA Pol ε) (protein, UniProt P24482 1-689)
chain: MFGSGNVLPVKIQPPLLRPLAYRVLSRKYGLSIKSDGLSALAEFVGTNIGANWRQGPATIKFLEQFAAVWKQQERGLFIDQSGVKEVIQEMKEREKVEWSHEHPIQHEENILGRTDDDENNSDDEMPIAADSSLQNVSLSSPMRQPTERDEYKQPFKPESSKALDWRDYFKVINASQQQRFSYNPHKMQFIFVPNKKQNGLGGIAGFLPDIEDKVQMFLTRYYLTNDRVMRNENFQNSDMFNPLSSMVSLQNELSNTNRQQQSSSMSITPIKNLLGRDAQNFLLLGLLNKNFKGNWSLEDPSGSVEIDISQTIPTQGHYYVPGCMVLVEGIYYSVGNKFHVTSMTLPPGERREITLETIGNLDLLGIHGISNNNFIARLDKDLKIRLHLLEKELTDHKFVILGANLFLDDLKIMTALSKILQKLNDDPPTLLIWQGSFTSVPVFASMSSRNISSSTQFKNNFDALATLLSRFDNLTENTTMIFIPGPNDLWGSMVSLGASGTLPQDPIPSAFTKKINKVCKNVVWSSNPTRIAYLSQEIVIFRDDLSGRFKRHRLEFPFNESEDVYTENDNMMSKDTDIVPIDELVKEPDQLPQKVQETRKLVKTILDQGHLSPFLDSLRPISWDLDHTLTLCPIPSTMVLCDTTSAQFDLTYNGCKVINPGSFIHNRRARYMEYVPSSKKTIQEEIYI
